Assay results reported in PubChem BioAssay AID2685 (National Center for Advancing Translational Sciences (NCATS), 2010).
The list shows a part of the results. These are further read-outs of the screen, such as a control signal, another cell line or another target. No call is given for them. Most of these compounds were active or inconclusive in the main read-out, so they are no random draw. Words in brackets tell the shape of the fitted curve; partial curves, single points and poor fits give uncertain potencies.

Assay: qHTS Assay for Lipid Storage Modulators in Drosophila S3 Cells;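 for cell number change: cells counted by Cell Tracker Red CMTPX staining in the red channel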
Conditions: BODIPY lipid droplet fluorescence, 18-24 h; for cell number change: measured here: cell count max response, cells fed with added oleic acid
Summary of the method: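 Drosophila S3 cells got compounds at several concentrations plus oleic acid (400 uM solution). Laser-scanning cytometry with 488 nm excitation read lipid droplets at 500-530 nm and cells at 575-640 nm. Percent activity was relative to 20 uM Triacsin C.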

[1] = measured here: cell number channel AC50, cells fed with added oleic acid
[2] = measured here: lipid fluorescence (Fed channel) AC50, cells fed with added oleic acid

Row | SMILES | cell number change | AC50 [1] | AC50 [2]
1 | CCc1nnc(NC(=O)CSc2nnc(-c3ccoc3C)n2CC(C)C)s1 | 45% | 29.1 µM [rising, single point] | 29.1 µM [rising, single point]
2 | O=C(NC1CCCCC1)c1cc(-c2ccccn2)nc2ccccc12 | 2.81% |  | 
3 | CN1N=C(C(=O)NC2CCCc3c2cnn3-c2ccc(F)cc2F)CCC1=O (stereo not given) | -55.4% | 11.6 µM [falling, partial curve, poor fit] | 
4 | CNC(=O)N1CCC(C(=O)c2c(C)c(C)c(C)c(C)c2C)CC1 | -0.709% |  | 
5 | Cc1cccc(CSCC(=O)NCc2ccc(S(N)(=O)=O)cc2)c1 |  |  | 18.4 µM [rising, single point]
6 | Cc1cccc(C)c1N(CC(=O)N1CCN(C)CC1)S(C)(=O)=O | -29.6% |  | 4.11 µM [falling, full curve]
7 | O=C(c1ccc2c(c1)OCO2)N1CCN(c2ncccn2)CC1 | 11.8% |  | 5.8 µM [rising, single point]
8 | O=C(Nc1ccccc1F)c1cc(S(=O)(=O)N2CCCCC2)cs1 | 5.69% |  | 0.184 µM [falling, full curve, poor fit]
9 | Cn1ncc2c(Nc3cc(Cl)cc(Cl)c3)ncnc21 | 0.298% |  | 
10 | CCCOc1ccc(OCCOCCN2CCc3ccccc3C2)cc1 | -18.5% |  | 
11 | C/C(=N\NC(=O)c1cccnc1)c1ccc(-c2ccccc2)cc1 | -37.3% | 32.6 µM [falling, single point] | 29.1 µM [falling, single point]
12 | COc1ccc(NC(=O)CSc2nnc(-c3ccccc3)n2Cc2ccco2)c(OC)c1 | -17.7% |  | 0.411 µM [rising, full curve, poor fit]
13 | Fc1ccc(NC(=S)N2CCOCC2)cc1Cl | -0.228% | 0.112 µM [falling, full curve, poor fit] | 
14 | CN(C)S(=O)(=O)c1ccc(N2CCCC2)c(C(=O)NC2CCCCC2)c1 | -25.9% | 0.58 µM [falling, full curve] | 
15 | CNC(=S)N/N=C(\C)c1ccc(Cl)c(Cl)c1 |  | 1.3 µM [rising, partial curve] | 
16 | C=CCn1c(SCC(=O)Nc2cccc(S(N)(=O)=O)c2)nnc1C1CCCCC1 | 8.57% |  | 0.517 µM [rising, single point]
17 | Cc1ccccc1-n1nc2c(c1NC(=O)C1CCCC1)CS(=O)(=O)C2 |  |  | 6.51 µM [falling, single point]
18 | CC(=O)n1cc(N(C(=O)CCl)c2ccccc2)c2ccccc21 | -62.2% | 20.6 µM [falling, partial curve, poor fit] | 
19 | Cc1cccc2[nH]c3c(N4CCN(C(=O)c5ccco5)CC4)ncnc3c12 | -25% |  | 0.259 µM [falling, full curve]
20 | COc1ccccc1N1CCN(C(=O)c2ccc(Cl)c(S(=O)(=O)NCc3ccco3)c2)CC1 | 21.8% |  | 3.66 µM [rising, partial curve]
21 | O=C(c1cccn2c(=O)c3ccccc3nc12)N1CCN(c2ccccn2)CC1 |  |  | 6.51 µM [falling, single point]

Two entries picked at random from those above:
Row | SMILES | cell number change | AC50 [1] | AC50 [2]
4 | CNC(=O)N1CCC(C(=O)c2c(C)c(C)c(C)c(C)c2C)CC1 | -0.709% |  | 
20 | COc1ccccc1N1CCN(C(=O)c2ccc(Cl)c(S(=O)(=O)NCc3ccco3)c2)CC1 | 21.8% |  | 3.66 µM [rising, partial curve]

Additional structures follow.

Row | SMILES | cell number change | AC50 [1] | AC50 [2]
22 | Cc1ccc(CNC(=O)CC(C)S(=O)(=O)c2ccc3c(c2)NC(=O)CS3)o1 (stereo not given) | 23.7% |  | 29.1 µM [rising, single point]
23 | COc1ccc(N(CC(=O)NCc2ccco2)C(=O)CCC(=O)Nc2nccs2)cc1 | 10.3% |  | 
24 | Cc1ccc(NC(=O)Cn2c(/C=C/c3ccccc3)nc3ccccc32)cc1C |  |  | 0.58 µM [rising, single point]
25 | Cc1ccc(SCCC(=O)NCCSCc2ccccc2C)cc1 | 3.66% |  | 29.1 µM [rising, single point]
26 | O=C(Nc1ccccc1)N1N=CCC1c1ccccc1 (stereo not given) |  | 1.26 µM [falling, partial curve] | 1.12 µM [falling, full curve]
27 | O=C(Nc1ccccc1)c1ccc(N2CCN(c3ccccn3)CC2)c(S(=O)(=O)N2CCOCC2)c1 |  | 2.91 µM [rising, partial curve] | 4.61 µM [rising, partial curve]
28 | Cc1ccc(-c2nn3c(C)nnc3s2)cc1NC(=O)c1ccc(-c2cccc(Cl)c2)o1 | 27.6% |  | 1.46 µM [rising, full curve, poor fit]
29 | COc1cccc(/C(O)=C/c2nc3ccc(C(=O)NCCc4ccc(Cl)cc4)cc3[nH]c2=O)c1 | 26.1% |  | 29.1 µM [rising, single point]
30 | O=c1cc(/N=C/c2coc3c(ccc4ccccc43)c2=O)[nH]c(=S)[nH]1 | -16.7% | 0.00461 µM [falling, full curve, poor fit] | 
31 | COc1cc(NC(=S)N2CCCC(CO)C2)c(OC)cc1Cl (stereo not given) | -13.2% |  | 0.731 µM [falling, full curve]
32 | CCC(C)c1ccccc1NC(=O)COC(=O)c1ccc(C)c(NC(=O)c2ccco2)c1 (stereo not given) | 52.5% | 0.0206 µM [rising, full curve, poor fit] | 0.0231 µM [rising, full curve, poor fit]
33 | O=C(/C=C\c1cccs1)c1c(O)ccc2ccc(=O)oc12 | -24.8% |  | 29.1 µM [falling, single point]
34 | CC(=O)NC1(C(F)(F)F)N=C(c2ccccc2)NC1=O (stereo not given) | -14.7% |  | 3.26 µM [falling, single point]
35 | CC(C)(O)P(C)(=O)c1ccccc1 (stereo not given) | -36.2% | 32.6 µM [falling, single point] | 
36 | CN1C(=O)CSc2ccc(C(=O)O)cc21 |  |  | 0.231 µM [falling, full curve]
37 | COCCNC(=O)CN(C(=O)c1ccc(N2CCCC2)nc1)c1ccc(Cl)cc1 | 2.65% |  | 
38 | O=C(CCC1CCN(C(=O)c2ccccc2Cl)CC1)NCc1ccc(F)cc1 | -1.98% |  | 29.1 µM [falling, single point]
39 | Clc1ccc(-c2nn3c(-c4cccc(Cl)c4)nnc3s2)cc1 | 4.68% |  | 
40 | CCOc1ccc(CNC(=O)CCCc2cn(C)c3ccccc23)cc1OC |  |  | 8.2 µM [falling, partial curve, poor fit]
41 | COC(=O)[C@H](Cc1ccccc1)NC(=O)c1cc(COc2c(F)cccc2F)on1 | 23.3% |  | 
